# Read-outs that look alike come from different tables or passages of the source. No constants are given. Whether binding was seen depends on the method and setting. In cells and extracts the contact can be indirect. Some binding calls cover weakened binding; strength is not graded here.
# The chains behind the UniProt entries cited, without tags or fusion partners.
# UniProt P0DTC4: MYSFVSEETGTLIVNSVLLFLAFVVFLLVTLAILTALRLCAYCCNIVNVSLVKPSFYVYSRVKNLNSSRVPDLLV
# UniProt O00560: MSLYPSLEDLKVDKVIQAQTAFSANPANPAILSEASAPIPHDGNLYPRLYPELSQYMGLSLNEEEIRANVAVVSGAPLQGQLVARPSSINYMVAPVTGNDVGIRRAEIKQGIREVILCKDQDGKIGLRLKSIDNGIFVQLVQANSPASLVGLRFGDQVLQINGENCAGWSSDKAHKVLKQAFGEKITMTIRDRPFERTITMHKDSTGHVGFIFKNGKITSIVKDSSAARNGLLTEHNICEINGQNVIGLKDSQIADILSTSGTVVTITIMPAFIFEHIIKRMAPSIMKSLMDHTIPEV
# Experiments:
# [1] = molecular target: GFP-SARS-CoV-2 E protein (wild-type E protein) (SARS-CoV-2) (UniProt P0DTC4); test: co-IP
# [2] = molecular target: GFP-SARS-CoV-2 E protein (wild-type E protein) (SARS-CoV-2) (UniProt P0DTC4); test: co-IP; remark: listed apart in the source
substance,measurement,setting,value
HA-syntenin (from UniProt O00560 1-298),binding,[1],binds
same,binding,[2],binds
